Measurements reported in PubChem BioAssay AID504764 (Drosophila RNAi Screening Center, 2011)
Aim: 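Genes whose knock-down alters Notch-dependent transcription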 (primary screen). System: Drosophila Kc167 cells. Knock-down reagent: long dsRNA against Drosophila genes. Time to read-out: about 5 days (4 days dsRNA, then 24 h after transfection). Challenge: transfection of constitutively active membrane-tethered Notch lacking the extracellular domain, read 24 h later. Measured: 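Firefly luciferase from an E(spl)m3 reporter with active Notch, plus control-promoter and uninduced reporter wells for normalisation; unnormalised counts, duplicate wells a and b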. Reading the numbers: induced reporter light, run 1, well a and induced reporter light, run 1, well b: higher = more light from the Notch target reporter with active Notch; control promoter light, run 1, well a and control promoter light, run 1, well b: higher = more light from the viral control promoter (cell number, transfection, viability); uninduced reporter light, run 1, well a: higher = more light from the Notch target reporter without active Notch. Call rule: 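Hit if the duplicate-averaged log2 ratio of induced to control-promoter light gives a plate-wise z beyond ±2, or induced to uninduced beyond ±1.8; weak-control or discordant-duplicate wells dropped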. Meaning of the calls: active = modifier hit (raised or lowered Notch signal); inactive = not a hit.
In all, the deposit lists about 22,000 reagents; this is a random part of those that have a named target and a result. Of all reagents, 403 (1.9%) are marked active. 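Unnormalised raw counts per well; ratio z-scores behind the hit calls and whether each hit raises or lowers signal are not deposited.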 The record does not give: the amount of reagent.

p38a [SID104196535] showed induced reporter light, run 1, well a = 1.97e5; induced reporter light, run 1, well b = 1.59e5; control promoter light, run 1, well a = 2.20e5; control promoter light, run 1, well b = 2.32e5; uninduced reporter light, run 1, well a = 13182; inactive.
CG6362 [SID104187205] gave induced reporter light, run 1, well a = 1.03e5; induced reporter light, run 1, well b = 1.05e5; control promoter light, run 1, well a = 1.17e5; control promoter light, run 1, well b = 1.67e5; uninduced reporter light, run 1, well a = 9955; inactive.
Ogg1 [SID104197530] gave induced reporter light, run 1, well a = 1.90e5; induced reporter light, run 1, well b = 1.97e5; control promoter light, run 1, well a = 2.57e5; control promoter light, run 1, well b = 2.99e5; uninduced reporter light, run 1, well a = 14110; inactive.
Against Cyp4d21 [SID104183097] the deposit lists induced reporter light, run 1, well a = 1.80e5; induced reporter light, run 1, well b = 1.62e5; control promoter light, run 1, well a = 1.81e5; control promoter light, run 1, well b = 1.92e5; uninduced reporter light, run 1, well a = 15530; inactive.
Syn [SID104196668] gave induced reporter light, run 1, well a = 72540; induced reporter light, run 1, well b = 69180; control promoter light, run 1, well a = 67340; control promoter light, run 1, well b = 46875; uninduced reporter light, run 1, well a = 4970; inactive.
Cpr31A [SID104182571] gave induced reporter light, run 1, well a = 1.06e5; induced reporter light, run 1, well b = 1.16e5; control promoter light, run 1, well a = 70330; control promoter light, run 1, well b = 87620; uninduced reporter light, run 1, well a = 17575; inactive.
Silencing of tomboy20 [SID104194705] gave: induced reporter light, run 1, well a = 81750; induced reporter light, run 1, well b = 65630; control promoter light, run 1, well a = 65145; control promoter light, run 1, well b = 50345; uninduced reporter light, run 1, well a = 4560; inactive.
With knock-down of CG13364 [SID104197690], the screen gave induced reporter light, run 1, well a = 1.22e5; induced reporter light, run 1, well b = 1.16e5; control promoter light, run 1, well a = 1.95e5; control promoter light, run 1, well b = 1.40e5; uninduced reporter light, run 1, well a = 8528; inactive.
For CG13364 [SID104201055] the deposit lists induced reporter light, run 1, well a = 97885; induced reporter light, run 1, well b = 68235; control promoter light, run 1, well a = 78070; control promoter light, run 1, well b = 1.05e5; uninduced reporter light, run 1, well a = 9450; inactive.
For CG13737 [SID104189856], the values are induced reporter light, run 1, well a = 2.09e5; induced reporter light, run 1, well b = 1.64e5; control promoter light, run 1, well a = 2.40e5; control promoter light, run 1, well b = 1.66e5; uninduced reporter light, run 1, well a = 12495; inactive.
With knock-down of Syb [SID104187351] the results were induced reporter light, run 1, well a = 1.23e5; induced reporter light, run 1, well b = 1.02e5; control promoter light, run 1, well a = 95230; control promoter light, run 1, well b = 97790; uninduced reporter light, run 1, well a = 7850; inactive.
Depletion of mip40 [SID104186333] gave: induced reporter light, run 1, well a = 72140; induced reporter light, run 1, well b = 87355; control promoter light, run 1, well a = 1.35e5; control promoter light, run 1, well b = 1.74e5; uninduced reporter light, run 1, well a = 7230; inactive.
For CR10032 [SID104192291], the entry reads induced reporter light, run 1, well a = 1.13e5; induced reporter light, run 1, well b = 1.09e5; control promoter light, run 1, well a = 1.21e5; control promoter light, run 1, well b = 1.04e5; uninduced reporter light, run 1, well a = 7505; inactive.
For CG12017 [SID104188017], the entry reads induced reporter light, run 1, well a = 1.24e5; induced reporter light, run 1, well b = 1.60e5; control promoter light, run 1, well a = 1.67e5; control promoter light, run 1, well b = 1.82e5; uninduced reporter light, run 1, well a = 6355; inactive.
Against Ocrl [SID104198368], the entry reads induced reporter light, run 1, well a = 1.72e5; induced reporter light, run 1, well b = 1.91e5; control promoter light, run 1, well a = 2.60e5; control promoter light, run 1, well b = 2.63e5; uninduced reporter light, run 1, well a = 12945; inactive.
For dnd [SID104195856], the entry reads induced reporter light, run 1, well a = 1.44e5; induced reporter light, run 1, well b = 1.65e5; control promoter light, run 1, well a = 1.84e5; control promoter light, run 1, well b = 1.66e5; uninduced reporter light, run 1, well a = 12730; inactive.
After knock-down of CG9691 [SID104198233] the results were induced reporter light, run 1, well a = 1.31e5; induced reporter light, run 1, well b = 1.22e5; control promoter light, run 1, well a = 2.46e5; control promoter light, run 1, well b = 2.63e5; uninduced reporter light, run 1, well a = 10355; inactive.
For CG33310 [SID104181689], the entry reads induced reporter light, run 1, well a = 1.28e5; induced reporter light, run 1, well b = 1.26e5; control promoter light, run 1, well a = 1.32e5; control promoter light, run 1, well b = 1.60e5; uninduced reporter light, run 1, well a = 10880; inactive.

2 entries from above, sorted by “control promoter light, run 1, well b”, low to high:
CG6362 [SID104187205] | induced reporter light, run 1, well a = 1.03e5; induced reporter light, run 1, well b = 1.05e5; control promoter light, run 1, well a = 1.17e5; control promoter light, run 1, well b = 1.67e5; uninduced reporter light, run 1, well a = 9955; activity call = inactive
p38a [SID104196535] | induced reporter light, run 1, well a = 1.97e5; induced reporter light, run 1, well b = 1.59e5; control promoter light, run 1, well a = 2.20e5; control promoter light, run 1, well b = 2.32e5; uninduced reporter light, run 1, well a = 13182; activity call = inactive
